This passage reports binding results from paper PMC8550753.

Amino acid sequences for entries named in this document (tags omitted). Residues count along the entry.
UniProt Q6P9K9, residues 28-1496: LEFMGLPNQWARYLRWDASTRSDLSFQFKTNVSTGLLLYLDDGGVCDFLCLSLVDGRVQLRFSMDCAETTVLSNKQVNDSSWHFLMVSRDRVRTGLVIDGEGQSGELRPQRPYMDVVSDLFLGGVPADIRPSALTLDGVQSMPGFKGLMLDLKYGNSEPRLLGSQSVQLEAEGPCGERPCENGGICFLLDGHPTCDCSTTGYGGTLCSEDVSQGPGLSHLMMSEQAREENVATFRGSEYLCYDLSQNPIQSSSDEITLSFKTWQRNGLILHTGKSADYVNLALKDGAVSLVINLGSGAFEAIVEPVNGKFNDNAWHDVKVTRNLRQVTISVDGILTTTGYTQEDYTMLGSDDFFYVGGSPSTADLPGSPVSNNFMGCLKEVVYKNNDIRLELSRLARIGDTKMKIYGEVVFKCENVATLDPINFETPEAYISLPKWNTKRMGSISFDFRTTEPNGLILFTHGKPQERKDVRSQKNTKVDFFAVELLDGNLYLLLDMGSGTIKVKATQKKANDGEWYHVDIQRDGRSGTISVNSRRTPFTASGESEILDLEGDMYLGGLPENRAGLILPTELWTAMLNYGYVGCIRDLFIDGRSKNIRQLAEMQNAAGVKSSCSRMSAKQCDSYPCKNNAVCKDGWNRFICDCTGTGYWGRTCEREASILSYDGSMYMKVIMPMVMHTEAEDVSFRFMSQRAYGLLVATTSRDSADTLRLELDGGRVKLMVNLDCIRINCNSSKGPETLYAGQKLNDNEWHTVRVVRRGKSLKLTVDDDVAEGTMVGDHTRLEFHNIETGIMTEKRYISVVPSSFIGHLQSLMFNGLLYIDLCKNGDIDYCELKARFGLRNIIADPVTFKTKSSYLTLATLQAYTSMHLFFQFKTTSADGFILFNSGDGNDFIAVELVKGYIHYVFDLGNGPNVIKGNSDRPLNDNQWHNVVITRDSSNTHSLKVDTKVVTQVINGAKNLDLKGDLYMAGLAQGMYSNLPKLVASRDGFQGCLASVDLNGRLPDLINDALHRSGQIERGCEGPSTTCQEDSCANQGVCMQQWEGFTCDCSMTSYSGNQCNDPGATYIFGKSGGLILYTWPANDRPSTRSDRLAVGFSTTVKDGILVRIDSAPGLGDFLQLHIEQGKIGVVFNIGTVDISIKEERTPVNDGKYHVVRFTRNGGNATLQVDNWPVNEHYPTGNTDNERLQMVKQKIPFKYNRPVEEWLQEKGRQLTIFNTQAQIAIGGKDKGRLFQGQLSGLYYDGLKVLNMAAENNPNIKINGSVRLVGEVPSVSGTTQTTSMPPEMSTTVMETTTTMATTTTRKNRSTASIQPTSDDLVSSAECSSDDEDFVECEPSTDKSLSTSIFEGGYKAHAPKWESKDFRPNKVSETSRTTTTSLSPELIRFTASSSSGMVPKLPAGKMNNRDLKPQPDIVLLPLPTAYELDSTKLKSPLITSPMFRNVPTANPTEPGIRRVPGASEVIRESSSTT
UniProt Q69ZK9, residues 15-836: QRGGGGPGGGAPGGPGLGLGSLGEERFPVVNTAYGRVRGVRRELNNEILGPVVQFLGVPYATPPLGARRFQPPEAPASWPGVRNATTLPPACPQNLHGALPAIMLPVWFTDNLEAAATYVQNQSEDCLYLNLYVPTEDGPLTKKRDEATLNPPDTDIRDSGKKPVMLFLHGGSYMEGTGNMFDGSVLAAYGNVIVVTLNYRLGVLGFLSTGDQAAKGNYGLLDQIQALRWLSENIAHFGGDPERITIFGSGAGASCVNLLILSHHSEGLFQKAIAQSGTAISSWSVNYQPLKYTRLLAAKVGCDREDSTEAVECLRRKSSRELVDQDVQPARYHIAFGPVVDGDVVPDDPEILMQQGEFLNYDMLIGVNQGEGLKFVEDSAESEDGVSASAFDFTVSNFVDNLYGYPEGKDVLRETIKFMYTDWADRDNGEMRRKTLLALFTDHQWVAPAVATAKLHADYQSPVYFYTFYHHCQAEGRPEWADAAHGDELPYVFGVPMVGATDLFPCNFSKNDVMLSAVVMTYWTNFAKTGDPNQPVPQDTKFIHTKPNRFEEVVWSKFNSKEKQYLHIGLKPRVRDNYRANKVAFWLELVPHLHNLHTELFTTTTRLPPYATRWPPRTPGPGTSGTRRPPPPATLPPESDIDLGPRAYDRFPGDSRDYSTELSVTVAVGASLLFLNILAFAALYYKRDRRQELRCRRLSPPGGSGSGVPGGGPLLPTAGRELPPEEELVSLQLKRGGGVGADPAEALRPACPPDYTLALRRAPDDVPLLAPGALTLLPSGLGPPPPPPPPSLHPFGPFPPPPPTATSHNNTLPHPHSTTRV

Results are given in words; binding and its absence hold for the method and conditions named. In cells and extracts the contact can be indirect. Some binding calls cover weakened binding; strength is not graded here.

The target in experiment [1] is extracellular domain of mouse neurexin-3 alpha SS4+ fused with the human Fc domain (mouse) (UniProt Q6P9K9). Briefly: pull-down; Nrxn3α-Fc on protein A beads incubated with the 100,000 x g supernatant of mouse cerebella solubilized in 25 mM Tris-Cl pH 8.0, 1 % LMNG; with 2 mM CaCl2 and 2 mM MgCl2; six washes with 0.1 % LMNG, 40 mM Tris-HCl pH 8.0 with 2 mM CaCl2, 2 mM MgCl2; bound proteins by SDS-PAGE and immunoblot; only the target purified. In general terms: A western blot detects proteins with antibodies after separation by electrophoresis.

Experiment [2] shares this target. Description: pull-down; as a1 but without calcium: incubation with 5 mM EDTA, washes without CaCl2 and MgCl2; only the target purified.

“neuroligin 2 (from UniProt Q69ZK9 15-836)”: the binding entry is “binds” in experiment [1] and “no binding (condition: with 5 mM EDTA (without calcium))” in experiment [2].

B1: GARLH4 (protein, UniProt Q5U4E0 1-247)
chain: MLPSQEASKLYHEHYMRNSRAIGVLWAIFTICFAIINVVVFIQPYWVGDSVSTPKPGYFGLFHYCVGSGLAGRELTCRGSFTDFSTIPSSAFKAAAFFVLLSMVLILGCITCFALFFFCNTATVYKICAWMQLLAALCLVLGCMIFPDGWDAETIRDMCGAKTGKYSLGDCSVRWAYILAIIGILNALILSFLAFVLGNRQTDLLQEELKQENKDFVGTTVSSVLRPGGDVSGWGVLPCPVAHTQGP
For the molecule B1, the binding result in experiment [1] is “binds”; in experiment [2], “no binding (condition: with 5 mM EDTA (without calcium))”.
